Earlier results as cited in patent US20120171123A1, “USES AND COMPOSITIONS FOR TREATMENT OF RHEUMATOID ARTHRITIS” (priority 2006, published 2012).
The name of at least one read-out is uncertain.

Conditions: Hoekstra et al. 2004; cited from earlier work

Structure (SMILES): CN(Cc1cnc2nc(N)nc(N)c2n1)c1ccc(C(=O)N[C@@H](CCC(=O)O)C(=O)O)cc1 [mtx alone, methotrexate]
- bioavailability of oral administration relative to subcutaneous administration: 64%
